The supplement of paper PMC10849652
This is one part of the list.

Sequences of proteins named here, by UniProt entry; tags and fusion partners are left off. A change or cut given only in a name is not applied to a line headed by its entry.
UniProt Q5T0F9: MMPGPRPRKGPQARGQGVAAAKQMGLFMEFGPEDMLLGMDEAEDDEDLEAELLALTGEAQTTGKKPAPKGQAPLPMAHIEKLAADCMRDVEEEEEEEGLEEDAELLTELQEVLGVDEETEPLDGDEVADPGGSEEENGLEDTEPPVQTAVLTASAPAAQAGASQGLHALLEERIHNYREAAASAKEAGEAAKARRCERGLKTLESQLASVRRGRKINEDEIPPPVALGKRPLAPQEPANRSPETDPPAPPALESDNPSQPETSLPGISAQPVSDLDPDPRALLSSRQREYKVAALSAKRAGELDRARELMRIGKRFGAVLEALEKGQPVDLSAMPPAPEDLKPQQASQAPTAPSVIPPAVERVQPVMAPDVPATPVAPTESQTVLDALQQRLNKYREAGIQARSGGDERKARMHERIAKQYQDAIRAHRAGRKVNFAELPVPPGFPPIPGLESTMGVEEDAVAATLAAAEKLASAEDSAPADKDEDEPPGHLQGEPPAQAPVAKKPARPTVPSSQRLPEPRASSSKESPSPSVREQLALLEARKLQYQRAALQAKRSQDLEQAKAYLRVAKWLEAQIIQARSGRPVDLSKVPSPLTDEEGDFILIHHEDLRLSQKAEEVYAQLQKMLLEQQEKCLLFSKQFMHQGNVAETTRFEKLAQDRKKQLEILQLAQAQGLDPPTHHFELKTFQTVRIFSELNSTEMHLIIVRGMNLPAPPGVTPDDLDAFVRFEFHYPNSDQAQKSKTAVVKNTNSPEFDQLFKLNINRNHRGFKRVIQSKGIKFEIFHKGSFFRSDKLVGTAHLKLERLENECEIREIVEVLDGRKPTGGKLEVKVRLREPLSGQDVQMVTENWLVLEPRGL
UniProt Q08722, whole entry, looked up: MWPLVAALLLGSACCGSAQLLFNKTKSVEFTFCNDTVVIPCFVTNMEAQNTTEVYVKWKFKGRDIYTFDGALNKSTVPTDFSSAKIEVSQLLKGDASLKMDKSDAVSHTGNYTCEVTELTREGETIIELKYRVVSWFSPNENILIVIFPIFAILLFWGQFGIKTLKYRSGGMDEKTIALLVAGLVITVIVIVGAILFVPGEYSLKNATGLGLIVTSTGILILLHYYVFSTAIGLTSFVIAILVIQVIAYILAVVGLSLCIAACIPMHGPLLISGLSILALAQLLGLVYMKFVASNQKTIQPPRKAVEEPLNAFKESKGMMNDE
UniProt O43439: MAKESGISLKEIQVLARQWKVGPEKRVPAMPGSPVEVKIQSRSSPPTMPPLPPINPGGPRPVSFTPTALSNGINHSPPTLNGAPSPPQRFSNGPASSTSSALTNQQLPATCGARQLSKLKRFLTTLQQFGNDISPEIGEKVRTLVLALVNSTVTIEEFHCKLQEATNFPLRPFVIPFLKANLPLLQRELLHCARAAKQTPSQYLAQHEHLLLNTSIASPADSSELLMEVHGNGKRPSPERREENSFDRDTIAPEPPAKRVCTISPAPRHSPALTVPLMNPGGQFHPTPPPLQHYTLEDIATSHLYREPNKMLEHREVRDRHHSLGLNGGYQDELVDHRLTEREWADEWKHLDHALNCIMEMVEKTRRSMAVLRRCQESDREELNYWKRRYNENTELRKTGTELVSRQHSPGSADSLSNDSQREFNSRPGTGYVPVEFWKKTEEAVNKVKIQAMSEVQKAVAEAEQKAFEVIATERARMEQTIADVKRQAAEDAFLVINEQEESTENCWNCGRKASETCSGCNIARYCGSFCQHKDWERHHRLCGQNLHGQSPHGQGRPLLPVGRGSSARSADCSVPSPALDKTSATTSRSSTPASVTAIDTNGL
UniProt P86791: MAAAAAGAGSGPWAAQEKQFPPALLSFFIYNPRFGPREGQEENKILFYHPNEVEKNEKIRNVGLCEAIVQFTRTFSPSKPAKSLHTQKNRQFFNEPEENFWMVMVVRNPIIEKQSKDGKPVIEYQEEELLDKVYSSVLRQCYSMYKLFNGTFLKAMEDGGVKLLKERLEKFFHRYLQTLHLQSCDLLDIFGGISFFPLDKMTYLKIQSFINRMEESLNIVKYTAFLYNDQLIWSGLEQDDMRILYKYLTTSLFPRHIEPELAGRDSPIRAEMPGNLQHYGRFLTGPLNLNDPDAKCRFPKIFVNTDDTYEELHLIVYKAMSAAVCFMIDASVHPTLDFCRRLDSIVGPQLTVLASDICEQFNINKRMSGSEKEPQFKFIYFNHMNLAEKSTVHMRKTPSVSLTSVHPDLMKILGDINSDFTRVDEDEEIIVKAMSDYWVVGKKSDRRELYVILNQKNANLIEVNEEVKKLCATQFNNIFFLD
UniProt P60953, whole entry, looked up: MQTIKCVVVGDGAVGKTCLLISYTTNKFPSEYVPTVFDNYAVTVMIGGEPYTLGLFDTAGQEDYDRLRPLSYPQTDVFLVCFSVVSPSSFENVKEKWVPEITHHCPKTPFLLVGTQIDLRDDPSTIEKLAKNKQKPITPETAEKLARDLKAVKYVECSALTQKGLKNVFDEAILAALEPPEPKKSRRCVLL
UniProt P35520: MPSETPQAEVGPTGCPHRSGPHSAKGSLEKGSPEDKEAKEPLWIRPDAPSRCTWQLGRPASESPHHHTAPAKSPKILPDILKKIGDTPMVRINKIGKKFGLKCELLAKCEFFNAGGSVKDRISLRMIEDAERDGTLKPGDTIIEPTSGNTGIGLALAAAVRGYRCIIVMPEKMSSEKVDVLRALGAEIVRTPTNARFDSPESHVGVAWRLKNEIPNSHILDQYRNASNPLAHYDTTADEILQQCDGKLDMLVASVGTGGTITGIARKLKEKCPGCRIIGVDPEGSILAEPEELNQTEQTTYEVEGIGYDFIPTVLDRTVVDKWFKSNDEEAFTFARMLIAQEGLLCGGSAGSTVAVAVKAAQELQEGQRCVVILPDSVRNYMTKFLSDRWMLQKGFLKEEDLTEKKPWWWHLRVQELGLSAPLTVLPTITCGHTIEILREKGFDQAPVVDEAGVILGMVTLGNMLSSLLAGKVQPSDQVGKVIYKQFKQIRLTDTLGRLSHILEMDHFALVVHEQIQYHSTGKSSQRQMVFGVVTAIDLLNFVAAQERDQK
UniProt Q9BRT8: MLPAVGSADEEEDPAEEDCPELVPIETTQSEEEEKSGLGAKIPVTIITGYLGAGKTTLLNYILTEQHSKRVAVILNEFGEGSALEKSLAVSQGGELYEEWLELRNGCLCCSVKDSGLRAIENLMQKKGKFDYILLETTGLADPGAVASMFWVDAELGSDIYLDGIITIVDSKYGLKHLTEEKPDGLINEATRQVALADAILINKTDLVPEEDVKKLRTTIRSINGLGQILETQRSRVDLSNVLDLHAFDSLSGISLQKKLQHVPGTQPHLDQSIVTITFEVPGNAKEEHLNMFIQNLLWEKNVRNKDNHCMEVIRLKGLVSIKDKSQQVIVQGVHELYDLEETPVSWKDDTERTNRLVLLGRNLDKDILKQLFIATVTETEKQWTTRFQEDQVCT
UniProt Q9BV29: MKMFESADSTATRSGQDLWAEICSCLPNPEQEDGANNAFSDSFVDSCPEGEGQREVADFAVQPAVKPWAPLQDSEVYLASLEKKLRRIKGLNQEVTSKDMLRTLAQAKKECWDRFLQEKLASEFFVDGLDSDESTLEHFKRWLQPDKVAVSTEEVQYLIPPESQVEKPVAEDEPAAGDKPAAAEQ
UniProt Q8IWY9: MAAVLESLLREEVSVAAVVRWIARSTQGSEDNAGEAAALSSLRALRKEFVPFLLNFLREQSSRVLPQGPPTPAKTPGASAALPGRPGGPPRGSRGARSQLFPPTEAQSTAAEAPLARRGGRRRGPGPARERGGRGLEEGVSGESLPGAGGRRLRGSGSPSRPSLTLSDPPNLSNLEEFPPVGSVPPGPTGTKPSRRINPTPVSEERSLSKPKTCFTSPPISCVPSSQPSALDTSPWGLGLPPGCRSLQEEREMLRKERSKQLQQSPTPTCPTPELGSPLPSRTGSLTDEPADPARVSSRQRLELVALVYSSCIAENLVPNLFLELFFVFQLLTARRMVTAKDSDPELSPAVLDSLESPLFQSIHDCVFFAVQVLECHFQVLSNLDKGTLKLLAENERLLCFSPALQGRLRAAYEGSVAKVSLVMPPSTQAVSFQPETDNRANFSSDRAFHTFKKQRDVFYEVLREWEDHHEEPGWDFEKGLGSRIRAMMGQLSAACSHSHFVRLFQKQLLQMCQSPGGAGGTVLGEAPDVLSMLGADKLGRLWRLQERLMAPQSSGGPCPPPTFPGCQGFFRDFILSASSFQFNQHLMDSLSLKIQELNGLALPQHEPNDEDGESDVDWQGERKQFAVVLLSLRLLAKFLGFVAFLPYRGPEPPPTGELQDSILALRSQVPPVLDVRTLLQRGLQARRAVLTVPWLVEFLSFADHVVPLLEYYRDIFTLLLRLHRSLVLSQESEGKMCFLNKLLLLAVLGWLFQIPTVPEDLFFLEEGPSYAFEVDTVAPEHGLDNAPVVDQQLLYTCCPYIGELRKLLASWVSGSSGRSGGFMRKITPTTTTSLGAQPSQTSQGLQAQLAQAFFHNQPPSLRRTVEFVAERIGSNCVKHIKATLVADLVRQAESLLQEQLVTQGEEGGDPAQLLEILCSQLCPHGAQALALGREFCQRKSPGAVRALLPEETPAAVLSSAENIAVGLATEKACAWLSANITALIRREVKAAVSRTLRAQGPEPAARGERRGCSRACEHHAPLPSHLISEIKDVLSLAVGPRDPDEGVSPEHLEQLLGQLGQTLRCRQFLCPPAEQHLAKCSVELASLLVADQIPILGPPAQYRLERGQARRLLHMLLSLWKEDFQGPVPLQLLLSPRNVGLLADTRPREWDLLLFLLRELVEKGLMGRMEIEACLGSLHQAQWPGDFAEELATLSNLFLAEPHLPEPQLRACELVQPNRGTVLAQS
UniProt Q9ULG6: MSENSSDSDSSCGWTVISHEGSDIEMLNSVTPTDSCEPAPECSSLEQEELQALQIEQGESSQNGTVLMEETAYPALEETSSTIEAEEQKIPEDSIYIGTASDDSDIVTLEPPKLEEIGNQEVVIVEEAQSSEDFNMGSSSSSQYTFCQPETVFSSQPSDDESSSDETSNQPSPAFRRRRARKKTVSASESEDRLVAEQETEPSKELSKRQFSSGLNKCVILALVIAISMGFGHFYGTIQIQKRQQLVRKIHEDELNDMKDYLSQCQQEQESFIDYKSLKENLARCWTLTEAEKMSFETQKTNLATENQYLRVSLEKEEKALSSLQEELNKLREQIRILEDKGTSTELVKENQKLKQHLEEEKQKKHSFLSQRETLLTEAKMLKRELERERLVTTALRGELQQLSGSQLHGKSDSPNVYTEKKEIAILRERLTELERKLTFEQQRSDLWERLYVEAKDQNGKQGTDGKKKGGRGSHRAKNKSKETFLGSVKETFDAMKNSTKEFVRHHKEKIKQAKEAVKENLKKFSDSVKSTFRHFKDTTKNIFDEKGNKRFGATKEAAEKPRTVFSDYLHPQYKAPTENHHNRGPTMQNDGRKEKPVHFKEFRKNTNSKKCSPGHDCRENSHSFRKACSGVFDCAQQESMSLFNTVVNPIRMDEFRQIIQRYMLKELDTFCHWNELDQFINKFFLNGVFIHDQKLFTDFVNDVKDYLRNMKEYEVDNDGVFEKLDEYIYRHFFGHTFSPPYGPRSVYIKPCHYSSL
UniProt A6NHX0: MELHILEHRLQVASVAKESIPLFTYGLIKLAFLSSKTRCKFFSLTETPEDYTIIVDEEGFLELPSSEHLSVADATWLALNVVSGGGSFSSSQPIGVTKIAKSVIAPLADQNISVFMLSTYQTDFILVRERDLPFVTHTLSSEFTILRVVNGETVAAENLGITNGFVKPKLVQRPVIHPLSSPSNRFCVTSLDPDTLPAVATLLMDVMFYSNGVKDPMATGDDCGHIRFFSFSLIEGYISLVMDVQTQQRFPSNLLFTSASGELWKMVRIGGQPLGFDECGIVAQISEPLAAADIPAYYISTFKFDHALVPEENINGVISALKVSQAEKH
UniProt Q9UJX2, whole entry, looked up: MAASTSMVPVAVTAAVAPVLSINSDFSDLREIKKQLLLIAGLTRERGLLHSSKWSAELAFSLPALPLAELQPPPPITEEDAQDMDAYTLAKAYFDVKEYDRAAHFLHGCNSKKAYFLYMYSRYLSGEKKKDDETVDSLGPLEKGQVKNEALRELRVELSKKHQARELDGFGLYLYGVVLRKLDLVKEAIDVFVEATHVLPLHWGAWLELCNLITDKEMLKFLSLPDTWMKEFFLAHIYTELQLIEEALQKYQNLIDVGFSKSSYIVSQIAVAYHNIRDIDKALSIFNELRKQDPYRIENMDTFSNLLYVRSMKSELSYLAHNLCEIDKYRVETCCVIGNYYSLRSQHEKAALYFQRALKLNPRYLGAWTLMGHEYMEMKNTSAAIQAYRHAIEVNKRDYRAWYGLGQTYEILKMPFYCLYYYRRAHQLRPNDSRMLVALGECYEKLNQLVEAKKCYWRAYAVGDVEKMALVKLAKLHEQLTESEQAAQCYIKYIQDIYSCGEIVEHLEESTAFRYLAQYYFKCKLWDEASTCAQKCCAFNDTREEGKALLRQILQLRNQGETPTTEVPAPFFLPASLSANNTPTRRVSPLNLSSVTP

Columns and labels:
Assay in all cases: log2 fold change, soluble protein after heating vs DMSO (PISA); higher = thermal stabilisation; K562 cells, 10 uM, 30 min; active = over 0.2 and 3.5 SD of the protein, either way, in both replicates (recomputed)
bafetinib = compound: Cc1ccc(NC(=O)c2ccc(CN3CC[C@H](N(C)C)C3)c(C(F)(F)F)c2)cc1Nc1nccc(-c2cncnc2)n1 [bafetinib]
Procedure, shortened: (§1)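 Values are thermal stability changes relative to control samples and are taken from duplicates. They are stated as log2 fold changes. Before quantification by TMTpro 16plex LC-MS/MS with equalised channel sums, K562 cells at 2×10^6 cells/mL were treated with 10 μM compound for 30 min, heated in aliquots for 3 min across 48°C-58°C, pooled, extracted in PBS with 0.5% NP-40 at 4°C, and centrifuged at 21,000xg for 90 min to give the soluble supernatant.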

[1] = compound: Cc1cccc(CC(=O)N2CCc3c2ccc(-c2cn(C)c4ncnc(N)c24)c3F)n1
Procedure, shortened: as §1

nilotinib = compound: Cc1cn(-c2cc(NC(=O)c3ccc(C)c(Nc4nccc(-c5cccnc5)n4)c3)cc(C(F)(F)F)c2)cn1 [nilotinib]
Procedure, shortened: as §1

[2] = compound: Cc1nc(Nc2n[nH]c3c2CN(C(=O)N[C@H](CN(C)C)c2ccccc2)C3(C)C)c2sccc2n1
Procedure, shortened: as §1

dasatinib = compound: Cc1nc(Nc2ncc(C(=O)Nc3c(C)cccc3Cl)s2)cc(N2CCN(CCO)CC2)n1 [dasatinib]
Procedure, shortened: as §1

[3] = compound: Cc1ncc(-c2ccnc(Nc3ccc(S(C)(=O)=O)cc3)n2)n1C(C)C
Procedure, shortened: as §1

[4] = compound: Cn1cc(-c2ccc3c(c2)CCN3C(=O)Cc2cccc(C(F)(F)F)c2)c2c(N)ncnc21
Procedure, shortened: as §1

[5] = compound: Cn1cc(-c2ccc3nnc(C(F)(F)c4ccc5ncccc5c4)n3n2)cn1
Procedure, shortened: as §1

tipifarnib = compound: Cn1cncc1[C@@](N)(c1ccc(Cl)cc1)c1ccc2c(c1)c(-c1cccc(Cl)c1)cc(=O)n2C [tipifarnib]
Procedure, shortened: as §1

mubritinib = compound: FC(F)(F)c1ccc(/C=C/c2nc(COc3ccc(CCCCn4ccnn4)cc3)co2)cc1 [mubritinib]
Procedure, shortened: as §1

| Target | log2 fold change (bafetinib) | log2 fold change [1] | log2 fold change (nilotinib) | log2 fold change [2] | log2 fold change (dasatinib) | log2 fold change [3] | log2 fold change [4] | log2 fold change [5] | log2 fold change (tipifarnib) | log2 fold change (mubritinib) |
| --- | --- | --- | --- | --- | --- | --- | --- | --- | --- | --- |
| CC2D1B isoform 2 (UniProt Q5T0F9) | inactive: -0.004 | inactive: -0.008 | inactive: -0.025 | inactive: -0.074 | inactive: -0.067 | inactive: 0.043 | inactive: 0.064 | inactive: 0.017 | inactive: 0.013 | inactive: 0.069 |
| CDC37 (UniProt K7EKQ2) | inactive: -0.385 | – | – | – | – | – | – | – | – | – |
| CD47 (UniProt Q08722) | inactive: -0.024 | inactive: 0.024 | inactive: 0.009 | inactive: -0.039 | inactive: 0.018 | inactive: -0.015 | inactive: 0.031 | inactive: 0.031 | inactive: 0.057 | inactive: 0.073 |
| CCDC91 (UniProt Q7Z6B0) | inactive: -0.025 | inactive: -0.028 | inactive: -0.008 | inactive: -0.011 | inactive: 0.005 | inactive: -0.024 | inactive: -0.058 | inactive: 0.028 | inactive: -0.001 | inactive: 0.047 |
| CCDC47 (UniProt Q96A33) | inactive: -0.065 | inactive: -0.022 | inactive: -0.056 | inactive: 0.011 | inactive: -0.072 | inactive: -0.005 | inactive: 0.03 | inactive: -0.013 | inactive: -0.061 | inactive: 0.032 |
| CD276 (UniProt Q5ZPR3) | inactive: -0.115 | inactive: -0.072 | – | – | – | – | – | – | – | – |
| CBX3 (UniProt Q13185) | inactive: -0.09 | inactive: -0.082 | inactive: 0.126 | inactive: -0.128 | inactive: 0.011 | inactive: -0.048 | inactive: 0.006 | inactive: 0.029 | inactive: 0.035 | inactive: 0.013 |
| CARS2 (UniProt Q9HA77) | inactive: -0.001 | inactive: -0.055 | inactive: -0.024 | inactive: 0.053 | inactive: -0.067 | inactive: -0.002 | inactive: -0.012 | inactive: -0.007 | inactive: -0.001 | inactive: -0.028 |
| CBFA2T2 isoform 4 (UniProt O43439) | inactive: 0.142 | inactive: -0.041 | – | – | – | – | – | – | – | – |
| CCZ1 (UniProt P86791) | inactive: -0.127 | inactive: 0.007 | inactive: 0.024 | inactive: -0.022 | inactive: -0.057 | inactive: -0.098 | inactive: 0.021 | inactive: 0.025 | inactive: 0.043 | inactive: 0.038 |
| CBX5 (UniProt P45973) | inactive: -0.019 | inactive: 0.01 | inactive: 0.002 | inactive: -0.138 | inactive: -0.069 | inactive: -0.064 | inactive: -0.01 | inactive: -0.02 | inactive: -0.048 | inactive: 0.062 |
| CD3EAP isoform 2 (UniProt O15446) | inactive: 0.1 | inactive: -0.061 | inactive: 0.013 | inactive: 0.156 | inactive: 0.167 | inactive: -0.167 | inactive: -0.065 | inactive: -0.086 | inactive: 0.032 | inactive: -0.054 |
| CDC42 (UniProt P60953) | inactive: -0.047 | inactive: 0.004 | inactive: 0.118 | inactive: 0.005 | inactive: -0.071 | inactive: 0.008 | inactive: 0.102 | inactive: -0.015 | inactive: -0.097 | inactive: -0.029 |
| CBS (UniProt P35520) | inactive: -0.031 | inactive: -0.029 | inactive: 0.025 | inactive: -0.012 | inactive: 0.018 | inactive: -0.003 | inactive: 0.079 | inactive: 0.035 | inactive: -0.023 | inactive: 0.056 |
| CCDC90B (UniProt Q9GZT6) | inactive: -0.025 | inactive: -0.016 | inactive: 0.06 | inactive: 0.003 | inactive: 0.066 | inactive: -0.04 | inactive: 0.099 | inactive: 0.144 | inactive: 0.048 | inactive: 0.033 |
| CDC16 (UniProt Q13042) | inactive: 0.03 | inactive: 0.094 | inactive: -0.022 | inactive: 0.005 | inactive: -0.024 | inactive: -0.043 | inactive: -0.065 | inactive: -0.047 | inactive: 0.042 | inactive: -0.018 |
| CBWD1 (UniProt Q9BRT8) | inactive: 0.027 | inactive: 0.071 | inactive: -0.067 | inactive: 0 | inactive: -0.189 | inactive: 0.07 | inactive: 0.13 | inactive: 0.027 | inactive: -0.046 | inactive: 0.057 |
| CCDC32 isoform 2 (UniProt Q9BV29) | inactive: 0.006 | inactive: -0.084 | inactive: 0.059 | inactive: -0.05 | inactive: 0.056 | inactive: -0.024 | inactive: 0.043 | inactive: -0.152 | inactive: 0.096 | inactive: 0.078 |
| CDAN1 (UniProt Q8IWY9) | inactive: -0.012 | inactive: -0.014 | inactive: 0.064 | inactive: -0.195 | active: -0.582 | inactive: -0.017 | inactive: -0.023 | inactive: 0.008 | inactive: 0.011 | inactive: 0.056 |
| CCPG1 isoform 5 (UniProt Q9ULG6) | inactive: 0.017 | inactive: 0.068 | inactive: -0.058 | inactive: 0.041 | inactive: 0.035 | inactive: -0.065 | inactive: -0.135 | inactive: -0.025 | inactive: 0.126 | inactive: -0.169 |
| CCDC6 (UniProt Q16204) | inactive: -0.035 | inactive: 0.002 | inactive: 0.002 | inactive: 0.001 | inactive: 0.028 | inactive: -0.016 | inactive: 0.054 | inactive: -0.022 | inactive: 0.002 | inactive: 0.019 |
| CAST isoform 6 (UniProt P20810) | inactive: -0.042 | inactive: -0.064 | inactive: 0.015 | inactive: -0.013 | inactive: 0.05 | inactive: -0.019 | inactive: -0.014 | inactive: -0.041 | inactive: 0.013 | inactive: 0.01 |
| CCNB2 (UniProt O95067) | inactive: -0.016 | inactive: 0.033 | inactive: 0.133 | inactive: -0.186 | inactive: -0.056 | inactive: -0.108 | inactive: 0.063 | inactive: -0.014 | inactive: -0.05 | inactive: 0.194 |
| CCNA2 (UniProt P20248) | inactive: 0.005 | inactive: 0.014 | inactive: 0.042 | inactive: -0.107 | inactive: -0.042 | inactive: 0.009 | inactive: 0.016 | inactive: -0.02 | inactive: 0.009 | inactive: 0.025 |
| CCNK isoform 4 (UniProt O75909) | inactive: 0.106 | inactive: -0.021 | inactive: 0.045 | inactive: 0.046 | inactive: -0.013 | inactive: -0.025 | inactive: -0.118 | inactive: -0.069 | inactive: 0.096 | inactive: 0.006 |
| CASTOR2 (UniProt A6NHX0) | inactive: -0.063 | inactive: 0.019 | inactive: 0.011 | inactive: 0.02 | inactive: -0.024 | inactive: -0.039 | inactive: -0.019 | inactive: -0.032 | inactive: -0.311 | inactive: -0.032 |
| CDC37L1 (UniProt Q7L3B6) | inactive: -0.215 | inactive: 0.027 | inactive: -0.026 | inactive: -0.167 | inactive: -0.088 | inactive: 0.022 | inactive: 0.018 | inactive: 0.121 | inactive: 0.034 | inactive: 0.172 |
| CDC23 (UniProt Q9UJX2) | inactive: 0.008 | inactive: -0.038 | inactive: -0.013 | inactive: -0.025 | inactive: 0.005 | inactive: -0.007 | inactive: -0.052 | inactive: -0.021 | inactive: 0.002 | inactive: -0.007 |
| CCNY (UniProt Q8ND76) | inactive: 0.381 | inactive: -0.277 | inactive: 0.22 | inactive: -0.231 | inactive: 0.112 | inactive: 0.025 | inactive: 0.002 | inactive: 0.077 | inactive: 0.107 | – |

A few values from the entries so far:
For log2 fold change [4], CC2D1B isoform 2 (UniProt Q5T0F9) shows inactive: 0.064
For log2 fold change (tipifarnib), CBS (UniProt P35520) shows inactive: -0.023
